We go through 1 substance from paper PMC11602438.

Amino acid sequences for entries named in this document (tags omitted).
UniProt O94903: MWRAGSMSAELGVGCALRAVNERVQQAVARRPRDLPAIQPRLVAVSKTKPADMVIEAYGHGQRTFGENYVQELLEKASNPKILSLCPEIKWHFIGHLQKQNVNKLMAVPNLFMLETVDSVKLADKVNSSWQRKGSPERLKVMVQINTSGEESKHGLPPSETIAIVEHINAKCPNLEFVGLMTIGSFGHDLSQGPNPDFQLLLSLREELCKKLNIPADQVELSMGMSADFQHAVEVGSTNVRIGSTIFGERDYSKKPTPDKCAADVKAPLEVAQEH

These are yes or no findings as the source states them, for the method shown. Some binding calls cover weakened binding; strength is not graded here.

The assay addresses human PLP-BP (PROSC), wild type (human) (UniProt O94903). Put plainly: SEC; purified recombinant PROSC (Figure S4); conditions not told for PROSC; both purified.

In the case of “human PLP-BP (PROSC), wild type (from UniProt O94903 1-275)”, the binding result is given as “binds weakly”.
